PubChem BioAssay AID1159578 – Peter MacCallum Cancer Centre | 2015

Aim: 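siRNA pools altering how lymphatic endothelial cells close a scratch wound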 (primary screen)
Cells: human lymphatic endothelial cells
Knock-down reagent: siRNA pool against human genes, 40 nM
Timing: 48 h after transfection
Read-out: 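High-content imaging of dye-stained cells in a scratch assay measures filled wound area and nuclei per well; duplicate means given as ratio to mock and robust z-score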
Scale: migration robust z-score: higher = faster migration into the scratch; nuclei per well: higher = more cells in the well
Hit rule: 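Pools averaging fewer than 3300 nuclei are never called; remaining pools count as changed when migration robust z lies outside -2 to 2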
Meaning of the calls: active = migration changed; inactive = no migration change, or too few cells
Shown is a random part of about 18,000 reagents. Of all reagents, about 1,030 (5.7%) are marked active. 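Inactive calls also include pools with fewer than 3300 nuclei, whose migration was not assessed.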 The raw values are shown without normalisation. A number with no mark means an inactive call. Further read-outs or replicates are left out here. No sequences are given here.

After knock-down of MCMBP (minichromosome maintenance complex binding protein) the results were migration robust z-score -0.94; nuclei per well, duplicate mean 5819. THAP3 (THAP domain containing 3) scored migration robust z-score -0.99; nuclei per well, duplicate mean 7938. Silencing of RPL21 (ribosomal protein L21) gave: migration robust z-score -1.42; nuclei per well, duplicate mean 4363. ARHGEF1 (Rho guanine nucleotide exchange factor 1) gave migration robust z-score 1.2; nuclei per well, duplicate mean 5007. After knock-down of PLAC8 (placenta associated 8) the results were migration robust z-score -0.39; nuclei per well, duplicate mean 5018. Depletion of MELTF (melanotransferrin) gave: migration robust z-score 0.73; nuclei per well, duplicate mean 5662.

Silencing of EXOC7 (exocyst complex component 7) came out at: migration robust z-score 0.24; nuclei per well, duplicate mean 7429. For SPINK2 (serine peptidase inhibitor Kazal type 2), the entry reads migration robust z-score -0.64; nuclei per well, duplicate mean 4611. Silencing of GALNT12 (polypeptide N-acetylgalactosaminyltransferase 12) gave: migration robust z-score -2.1 (active); nuclei per well, duplicate mean 6017. Knock-down of CDKN2A (cyclin dependent kinase inhibitor 2A) resulted in: migration robust z-score 0.68; nuclei per well, duplicate mean 5748. For ZBTB9 (zinc finger and BTB domain containing 9), the entry reads migration robust z-score 0.24; nuclei per well, duplicate mean 6050.

Laid out differently: entries from further up.
{"target gene":"RPL21 (ribosomal protein L21)","migration robust z-score":-1.42,"nuclei per well, duplicate mean":4363}
{"target gene":"ARHGEF1 (Rho guanine nucleotide exchange factor 1)","migration robust z-score":1.2,"nuclei per well, duplicate mean":5007}

Further entries:
Knock-down of PLA2G2D (phospholipase A2 group IID) resulted in: migration robust z-score -2.23 (active); nuclei per well, duplicate mean 3904. With knock-down of KLRB1 (killer cell lectin like receptor B1) the results were migration robust z-score 1.02; nuclei per well, duplicate mean 6123. After knock-down of AFG2A (AAA ATPase AFG2A), the screen gave migration robust z-score 0.38; nuclei per well, duplicate mean 4557. PRLH (prolactin releasing hormone) scored migration robust z-score -2.31 (active); nuclei per well, duplicate mean 5944. After knock-down of ZNF718 (zinc finger protein 718), the record shows migration robust z-score 1.94; nuclei per well, duplicate mean 5934. ICA1 (islet cell autoantigen 1) gave migration robust z-score -0.34; nuclei per well, duplicate mean 4896.

For ZP1 (zona pellucida glycoprotein 1), the values are migration robust z-score 0.94; nuclei per well, duplicate mean 5273. KLRA1P (killer cell lectin like receptor A1, pseudogene) showed migration robust z-score 0.65; nuclei per well, duplicate mean 5326. NCF4 (neutrophil cytosolic factor 4) gave migration robust z-score 0.45; nuclei per well, duplicate mean 5068. Against PCDHA4 (protocadherin alpha 4) the deposit lists migration robust z-score 2.18 (active); nuclei per well, duplicate mean 7321. With knock-down of TECPR2 (tectonin beta-propeller repeat containing 2) the results were migration robust z-score 1.72; nuclei per well, duplicate mean 5292. NDUFV3 (NADH:ubiquinone oxidoreductase subunit V3) scored migration robust z-score -0.74; nuclei per well, duplicate mean 5860.

Depletion of CHD5 (chromodomain helicase DNA binding protein 5) came out at: migration robust z-score 0.54; nuclei per well, duplicate mean 5164. SMAD4 (SMAD family member 4) gave migration robust z-score 0.06; nuclei per well, duplicate mean 5995. Against BLZF1 (basic leucine zipper nuclear factor 1), the values are migration robust z-score 0.05; nuclei per well, duplicate mean 6088. Depletion of GABRE (gamma-aminobutyric acid type A receptor subunit epsilon) gave: migration robust z-score -0.64; nuclei per well, duplicate mean 4778.
